Measurements as given in paper PMC4381070.
No constants are given. Whether binding was seen depends on the method and setting. In cells and extracts the contact can be indirect. A yes stands for co-enrichment or nearness to the bait. Other partners may have been found.

Protein sequences, listed by entry. Tags and fused reporters are not part of them.
UniProt Q9BQ69: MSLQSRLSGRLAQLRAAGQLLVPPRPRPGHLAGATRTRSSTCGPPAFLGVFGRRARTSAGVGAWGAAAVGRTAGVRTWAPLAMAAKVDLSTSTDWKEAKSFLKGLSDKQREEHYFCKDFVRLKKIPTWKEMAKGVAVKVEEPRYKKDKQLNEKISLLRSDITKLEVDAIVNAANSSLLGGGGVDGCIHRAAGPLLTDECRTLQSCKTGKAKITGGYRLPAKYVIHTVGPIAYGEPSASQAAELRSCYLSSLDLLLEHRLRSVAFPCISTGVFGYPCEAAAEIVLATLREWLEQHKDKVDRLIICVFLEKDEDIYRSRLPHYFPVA
UniProt Q9Y6K9: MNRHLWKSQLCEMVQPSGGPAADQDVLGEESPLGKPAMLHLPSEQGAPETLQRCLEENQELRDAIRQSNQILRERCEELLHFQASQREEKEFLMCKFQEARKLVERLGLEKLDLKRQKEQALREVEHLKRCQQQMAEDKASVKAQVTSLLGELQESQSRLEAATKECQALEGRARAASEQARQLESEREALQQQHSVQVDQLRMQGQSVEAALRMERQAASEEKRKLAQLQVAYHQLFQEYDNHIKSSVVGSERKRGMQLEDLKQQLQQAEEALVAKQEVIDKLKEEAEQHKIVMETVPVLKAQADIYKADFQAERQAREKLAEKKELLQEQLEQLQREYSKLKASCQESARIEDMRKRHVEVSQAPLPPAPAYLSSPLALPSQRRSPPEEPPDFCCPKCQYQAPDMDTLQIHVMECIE
UniProt P09874: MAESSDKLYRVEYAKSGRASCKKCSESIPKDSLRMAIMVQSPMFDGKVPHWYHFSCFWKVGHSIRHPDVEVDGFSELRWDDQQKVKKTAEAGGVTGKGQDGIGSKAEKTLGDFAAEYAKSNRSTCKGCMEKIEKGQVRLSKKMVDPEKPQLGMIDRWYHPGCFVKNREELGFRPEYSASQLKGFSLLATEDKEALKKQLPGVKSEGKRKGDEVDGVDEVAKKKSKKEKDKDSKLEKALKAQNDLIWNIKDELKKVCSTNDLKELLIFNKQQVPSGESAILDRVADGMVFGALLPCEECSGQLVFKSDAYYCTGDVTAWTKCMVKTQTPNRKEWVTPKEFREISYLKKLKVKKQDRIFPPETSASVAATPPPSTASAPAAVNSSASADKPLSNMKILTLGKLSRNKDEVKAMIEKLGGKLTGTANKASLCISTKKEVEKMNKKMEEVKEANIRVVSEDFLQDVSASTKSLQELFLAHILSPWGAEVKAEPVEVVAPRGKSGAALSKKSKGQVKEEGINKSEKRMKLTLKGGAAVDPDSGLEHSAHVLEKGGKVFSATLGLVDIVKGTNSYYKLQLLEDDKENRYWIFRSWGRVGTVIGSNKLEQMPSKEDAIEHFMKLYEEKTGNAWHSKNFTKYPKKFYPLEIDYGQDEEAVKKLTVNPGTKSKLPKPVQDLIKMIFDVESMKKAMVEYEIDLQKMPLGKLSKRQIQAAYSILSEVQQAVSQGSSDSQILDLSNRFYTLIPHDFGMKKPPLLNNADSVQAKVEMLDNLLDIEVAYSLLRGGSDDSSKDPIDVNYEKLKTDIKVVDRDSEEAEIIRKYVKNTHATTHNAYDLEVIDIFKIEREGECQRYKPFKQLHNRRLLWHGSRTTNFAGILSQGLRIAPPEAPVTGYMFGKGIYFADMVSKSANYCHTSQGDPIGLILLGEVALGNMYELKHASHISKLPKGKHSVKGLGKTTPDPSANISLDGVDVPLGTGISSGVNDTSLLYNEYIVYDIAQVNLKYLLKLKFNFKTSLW

Molecular target: FLAG-LRP16 (wild-type Leukemia Related Protein 16) (UniProt Q9BQ69)
Test: affinity purification with mass spectrometry; HeLa cells over-expressing FLAG-LRP16, VP16 (50 μM, 30 min); IP with anti-FLAG agarose, elution with 3×FLAG peptide, SDS-PAGE, silver staining, visible bands excised; FLAG vector as control

| binding | Substance |
| --- | --- |
| binds | IKKγ (endogenous) (from UniProt Q9Y6K9 1-419) |
| binds | PARP1 (endogenous) (from UniProt P09874 1-1014) |
